We go through two molecules from article PMC10989010, “A panel of janus kinase inhibitors identified with anti-inflammatory effects protect mice from lethal influenza virus infection” (Antimicrobial Agents and Chemotherapy, 2024).

Assay [1] deals with IL-8. Kind of assay: U937 cell-based anti-inflammatory assay for influenza virus infection, IL-8 production (AlphaLISA). The settings on record: read-out: IC50 IL-8, U937 cells infected with PR8 virus, 72 hours, mean of three independent experiments. Set-up: species or system human. The procedure: U937 cells were seeded in a 96-well culture plate at a density of 1.5 × 10^5 cells per well and incubated for 24 hours prior to virus infection. Subsequently, the cells in each well were infected with the PR8 virus at a multiplicity of infection of 0.05 and treated with serially diluted drugs or left untreated as a control. The drugs were serially diluted threefold, starting from an initial concentration of 200 µM down to 0.01 µM. […] Following this incubation, the supernatants were collected and subjected to AlphaLISA analysis to determine IL-8, IP-10, and MCP1 protein levels.
The AlphaLISA detection kits employed in this study were IL-8 (PerkinElmer AL224), IP-10 (PerkinElmer AL259), and MCP1 (PerkinElmer, AL244). U937 cell culture supernatants were measured for IL-8, IP-10, and MCP-1 protein levels using AlphaLISA assay as per the manufacturer’s recommendations. The ELISA and AlphaLISA plates were read using the Varioskan LUX multimode microplate reader (Thermo Scientiﬁc, Waltham, MA, USA).

The subject of assay [2] is IP-10. Kind of assay: cells. Format: cell-based, human. The settings on record: read-out: IC50 IP-10.
Assay [3] deals with MCP1. Kind of assay: cells. It counts as cell-based, human. The settings on record: read-out: IC50 MCP1.

The structures appear in SMILES notation. Where a name gives a salt, the structure may show the parent alone. Read-outs that look alike come from different tables or passages of the source.

In the case of `C[C@@H]1CCN(C(=O)CC#N)C[C@@H]1N(C)c1ncnc2[nH]ccc12` [Tofacitinib citrate], the IC50 in assay [1] came out at 20 nM; in assay [2], 40 nM; in assay [3] it was 40 nM.

As for `C[C@@H]1CCN(C(=O)CC#N)C[C@@H]1N(C)c1ncnc2[nH]ccc12` [Tofacitinib], the half-maximal inhibitory concentration (IC50) in assay [1] (Homo sapiens, U-937, 72 h) came out at 10 nM; in assay [2] (Homo sapiens, U-937, 72 h) it was 20 nM; in assay [3] (Homo sapiens, U-937, 72 h) it was 50 nM.
